Patent US9194863B2, “Treatment of pain” (priority 2011, dated 2015)

Columns and labels:
[1] = test system: DRG neurons; experiment: Fura-2 intracellular Ca2+ imaging in isolated DRG neurons; type: cell-based, mouse
Experimental: Human embryonic kidney cells, HEK293T, were grown in Dulbecco's modified Eagle's medium (DMEM) containing 10% (v/v) human serum, 2 mM L-glutamine, 2 units/ml penicillin, and 2 mg/ml streptomycin at 37° C. in a humidity-controlled incubator with 10% CO2. HEK293T cells were transiently transfected with murine TRPM3α2 (accession number AJ 544535) in the bicistronic pCAGGS/IRES-GFP vector, using Mirus TransIT-293 (Mirus corporation; Madison USA). Transfected cells were visualized by green fluorescence protein (GFP) expression whereas GFP negative cells from the same batch were used as controls. TG and DRG neurons from adult (postnatal weeks 8-12) male mice were isolated as described previously (Karashima et al., 2007). HEK293T cells stably transfected with TRPM3α2 were developed using the Flp-In System (Invitrogen).
Fura-2-based ratiometric intracellular Ca^2+ measurements were performed as described previously (Vriens et al., 2007). The following procedure was used to distinguish stimulus-induced responses from background variations in fluorescence. First, we calculated the time derivative of the fluorescence ratio (dRatio/dt), and the standard deviation (SD) of dRatio/dt in the absence of any stimulus. A positive response was noted when a stimulus caused an increase of dRatio/dt exceeding 5×SD. […] For every condition, a minimum of 100 cells derived from at least three separated isolations and in at least twelve independent measurements were analyzed.

[2] = test system: mice; experiment: Body core temperature by telemetry after subcutaneous injection; type: in vivo, mouse; details: PS 28 mg/kg, capsaicin 0.4 mg/kg, Trpm3+/+ and Trpm3−/− mice

| Compound | average diameter of responsive DRG neurons [1] [μm] | diameter of responsive DRG neurons [1] [μm] | effect on core body temperature [2] |
| --- | --- | --- | --- |
| CC(=O)C1CCC2C3CC=C4CC(OS(=O)(=O)O)CCC4(C)C3CCC12C (centres unmarked) [PS, pregnenolone sulphate] | 12.4±0.3 | < 25 | without effect |
| COc1cc(CNC(=O)CCCC/C=C/C(C)C)ccc1O [capsaicin] | 12.0±0.3 | – | clear hypothermia |
